This series can be described thus: Totox value of sunflower oil on storage.
[1] abbreviates: ambient temperature, day 0, 200 ppm.
Setting [2] is: ambient temperature, day 15, 200 ppm.
[3] abbreviates: ambient temperature, day 30, 200 ppm.
[4] abbreviates: ambient temperature, day 45, 200 ppm.
Setting [5] is: ambient temperature, day 60, 200 ppm.
[6] abbreviates: ambient temperature, day 75, 200 ppm.
Setting [7] is: ambient temperature, day 90, 200 ppm.
[8] abbreviates: ambient temperature, day 105, 200 ppm.
Where [9] appears, read: ambient temperature, day 120, 200 ppm.
[10] abbreviates: ambient temperature, day 135, 200 ppm.
Setting [11] is: ambient temperature, day 150, 200 ppm.
Where [12] appears, read: ambient temperature, day 165, 200 ppm.
The mark [13] stands for this setting: ambient temperature, day 180, 200 ppm.

Experimental findings from US20140248361A1, “HERBAL EXTRACT COMPOSITION AND A PROCESS THEREOF” (PRASAN SOLUTIONS (INDIA) PVT LTD, priority 2012, published 2014) are described below.

SMILES strings stand for the structures.

As to `CC(C)(C)c1cc(O)ccc1O` [Sample A, tertiary butyl hydroquinone], the “Totox value of sunflower oil” value is 7.850 (50° C., day 0, 200 ppm); 8.919 (50° C., day 7, 200 ppm); 11.655 (50° C., day 15, 200 ppm); 17.128 (50° C., day 22, 200 ppm); 27.087 (50° C., day 30, 200 ppm); 32.447 (50° C., day 37, 200 ppm). Moreover, the “Totox value of sunflower oil” value came out at 36.287 (50° C., day 45, 200 ppm); 7.458 under setting [1]; 10.051 under setting [2]; 11.937 under setting [3]; 12.588 under setting [4]; 12.893 under setting [5]. Also, the “Totox value of sunflower oil” value runs as follows: under setting [6], 13.749; under setting [7], 14.669; under setting [8], 16.253; under setting [9], 17.299; under setting [10], 19.100; under setting [11], 20.674. For the same molecule, the “Totox value of sunflower oil” value runs as follows: under setting [12], 24.158; under setting [13], 25.399.

Regarding `COc1ccc(O)c(C(C)(C)C)c1` [Sample B, butylated hydroxyanisole], the “Totox value of sunflower oil” value reads like this: (50° C., day 0, 200 ppm) 7.850; (50° C., day 7, 200 ppm) 18.784; (50° C., day 15, 200 ppm) 30.034; (50° C., day 22, 200 ppm) 37.639; (50° C., day 30, 200 ppm) 44.365; (50° C., day 37, 200 ppm) 54.210. For the same molecule, the “Totox value of sunflower oil” value by setting is: (50° C., day 45, 200 ppm) 68.642; under setting [1], 7.458; under setting [2], 13.438; under setting [3], 23.889; under setting [4], 28.077; under setting [5], 34.976. The “Totox value of sunflower oil” value under setting [6] is recorded as 42.114; the “Totox value of sunflower oil” value under setting [7] is on record as 52.191; the “Totox value of sunflower oil” value under setting [8] was determined as 65.149; the “Totox value of sunflower oil” value under setting [9] is recorded as 75.207; the “Totox value of sunflower oil” value under setting [10] turned out to be 92.085; the “Totox value of sunflower oil” value under setting [11] was 101.75. In addition, the “Totox value of sunflower oil” value is listed as 122.23 under setting [12] and 133.27 under setting [13].
